{"source": "PubChem BioAssay AID1259425, University of Nebraska Medical Center | 2018", "purpose": "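Seek colon cancer weak points whose silencing resembles KSR1 loss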 (primary screen)", "system": "HCT116 human colon cancer cells", "reagents": "siRNA pool against human genes, 50 nM siRNA", "measurement": "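mRNA of six signature genes measured together by branched-DNA assay after 50 nM siRNA pool, blank removed, divided by geometric mean of two housekeeping genes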", "scale": "BNIP3L mRNA: higher = more BNIP3L transcript after knockdown", "note": "In all, the deposit lists about 14,000 reagents; shown is a random part of them. Further read-outs or replicates are left out here. Not stated in the record: the time to read-out."}
{"target gene": "TUBG2", "BNIP3L mRNA, set 1": 0.141}
{"target gene": "FHIP1B", "BNIP3L mRNA, set 1": 0.267}
{"target gene": "ETNK2", "BNIP3L mRNA, set 1": 0.0892}
{"target gene": "PDE6G", "BNIP3L mRNA, set 1": 0.0996}
{"target gene": "MARS1", "BNIP3L mRNA, set 1": 0.0598}
{"target gene": "SPTBN2", "BNIP3L mRNA, set 1": 0.134}
{"target gene": "HLA-DRB4", "BNIP3L mRNA, set 1": 0.0888}
{"target gene": "MTIF2", "BNIP3L mRNA, set 1": 0.129}
{"target gene": "UFC1", "BNIP3L mRNA, set 1": 0.206}
{"target gene": "ZNF77", "BNIP3L mRNA, set 1": 0.232}
{"target gene": "CATSPERB", "BNIP3L mRNA, set 1": 0.0852}
{"target gene": "GFRA4", "BNIP3L mRNA, set 1": 0.124}
{"target gene": "OR2A4", "BNIP3L mRNA, set 1": 0.138}
{"target gene": "AVPI1", "BNIP3L mRNA, set 1": 0.132}
{"target gene": "LMAN1L", "BNIP3L mRNA, set 1": 0.175}
{"target gene": "CDK2AP2", "BNIP3L mRNA, set 1": 0.241}
{"target gene": "C21orf91", "BNIP3L mRNA, set 1": 0.0733}
{"target gene": "KIFBP", "BNIP3L mRNA, set 1": 0.192}
{"target gene": "ZNF574", "BNIP3L mRNA, set 1": 0.104}
{"target gene": "LINC00470", "BNIP3L mRNA, set 1": 0.15}
{"target gene": "LBP", "BNIP3L mRNA, set 1": 0.182}
{"target gene": "OR1E2", "BNIP3L mRNA, set 1": 0.201}
{"target gene": "FKBP10", "BNIP3L mRNA, set 1": 0.167}
{"target gene": "SPA17", "BNIP3L mRNA, set 1": 0.094}
{"target gene": "RPL15", "BNIP3L mRNA, set 1": 1.2}
{"target gene": "TPSG1", "BNIP3L mRNA, set 1": 0.0799}
{"target gene": "CSRNP2", "BNIP3L mRNA, set 1": 0.203}
{"target gene": "CDH22", "BNIP3L mRNA, set 1": 0.12}
{"target gene": "CIP2A", "BNIP3L mRNA, set 1": 0.0694}
{"target gene": "CD248", "BNIP3L mRNA, set 1": 0.191}
{"target gene": "MTRES1", "BNIP3L mRNA, set 1": 0.109}
{"target gene": "FAM20B", "BNIP3L mRNA, set 1": 0.126}
{"target gene": "SCN2B", "BNIP3L mRNA, set 1": 0.21}
{"target gene": "MARVELD1", "BNIP3L mRNA, set 1": 0.258}
{"target gene": "CHRNA6", "BNIP3L mRNA, set 1": 0.0652}
{"target gene": "JRK", "BNIP3L mRNA, set 1": 0.0579}

Entries listed so far whose gene name starts with T or t (2):
{"target gene": "TUBG2", "BNIP3L mRNA, set 1": 0.141}
{"target gene": "TPSG1", "BNIP3L mRNA, set 1": 0.0799}
